{"sequences": {"note": "Chains of the proteins cited; added tags and fusions are not shown. Residues count along the entry.", "UniProt P35869, residues 11-848": "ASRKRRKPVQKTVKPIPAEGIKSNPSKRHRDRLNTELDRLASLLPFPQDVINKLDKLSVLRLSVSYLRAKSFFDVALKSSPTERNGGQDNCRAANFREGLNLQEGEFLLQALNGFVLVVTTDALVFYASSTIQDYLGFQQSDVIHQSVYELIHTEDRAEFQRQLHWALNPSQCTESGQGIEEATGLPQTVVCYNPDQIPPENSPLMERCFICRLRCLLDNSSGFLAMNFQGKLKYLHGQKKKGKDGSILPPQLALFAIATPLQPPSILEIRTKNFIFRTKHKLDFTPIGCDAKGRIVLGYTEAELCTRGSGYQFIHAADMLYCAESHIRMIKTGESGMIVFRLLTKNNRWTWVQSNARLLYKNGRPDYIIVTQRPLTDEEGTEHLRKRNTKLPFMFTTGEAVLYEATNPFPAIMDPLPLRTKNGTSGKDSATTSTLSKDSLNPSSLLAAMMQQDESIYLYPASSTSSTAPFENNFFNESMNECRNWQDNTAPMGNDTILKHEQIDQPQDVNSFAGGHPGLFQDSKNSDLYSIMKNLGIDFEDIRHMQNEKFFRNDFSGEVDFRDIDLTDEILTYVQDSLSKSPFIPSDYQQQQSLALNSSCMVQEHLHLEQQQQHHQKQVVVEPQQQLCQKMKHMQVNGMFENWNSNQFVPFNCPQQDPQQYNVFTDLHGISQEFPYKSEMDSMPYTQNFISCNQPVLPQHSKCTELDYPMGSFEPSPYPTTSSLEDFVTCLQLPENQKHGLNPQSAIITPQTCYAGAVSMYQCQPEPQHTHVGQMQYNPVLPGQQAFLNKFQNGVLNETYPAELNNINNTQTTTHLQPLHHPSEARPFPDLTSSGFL", "UniProt P10275": "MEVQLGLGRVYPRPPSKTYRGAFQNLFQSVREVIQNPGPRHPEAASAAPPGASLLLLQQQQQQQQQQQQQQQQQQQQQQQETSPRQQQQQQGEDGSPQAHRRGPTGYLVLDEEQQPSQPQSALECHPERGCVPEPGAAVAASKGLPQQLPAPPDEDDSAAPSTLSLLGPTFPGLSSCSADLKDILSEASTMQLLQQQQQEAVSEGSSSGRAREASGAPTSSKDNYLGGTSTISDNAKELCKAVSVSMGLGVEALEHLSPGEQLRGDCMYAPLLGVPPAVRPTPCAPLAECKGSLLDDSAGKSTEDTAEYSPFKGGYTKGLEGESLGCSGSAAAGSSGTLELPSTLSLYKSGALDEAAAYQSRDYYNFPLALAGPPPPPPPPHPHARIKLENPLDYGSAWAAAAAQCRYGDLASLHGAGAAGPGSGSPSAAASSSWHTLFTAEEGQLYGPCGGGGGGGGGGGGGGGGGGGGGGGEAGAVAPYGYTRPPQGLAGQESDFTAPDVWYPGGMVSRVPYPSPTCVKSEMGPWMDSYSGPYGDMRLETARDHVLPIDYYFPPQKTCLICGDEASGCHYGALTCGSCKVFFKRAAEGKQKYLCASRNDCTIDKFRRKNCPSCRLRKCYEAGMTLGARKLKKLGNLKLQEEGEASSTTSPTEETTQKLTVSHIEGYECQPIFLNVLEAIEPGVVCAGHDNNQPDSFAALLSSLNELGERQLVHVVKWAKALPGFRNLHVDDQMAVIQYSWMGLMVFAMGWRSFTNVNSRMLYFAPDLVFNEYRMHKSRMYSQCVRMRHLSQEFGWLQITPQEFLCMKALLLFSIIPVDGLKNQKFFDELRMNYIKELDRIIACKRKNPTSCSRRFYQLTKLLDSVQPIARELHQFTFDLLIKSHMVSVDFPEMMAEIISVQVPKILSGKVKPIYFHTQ"}, "source": "paper PMC6521308", "biological_target": "Aryl hydrocarbon receptor (human (endogenous in HeyA8, OVCAR3, SKOV3ip1)) (UniProt P35869)", "assay": "co-IP; lysates (500 ug per IP) of AR-overexpressed HeyA8, OVCAR3 and SKOV3ip1 cells in non-denaturing lysis buffer (20 mM Tris HCl pH 8, 137 mM NaCl, 1% NP-40, 2 mM EDTA); AhR immunoprecipitated with anti-AhR antibody at 4 °C overnight, protein A/G agarose; western blot with anti-AR and anti-AhR; rabbit IgG as control", "note": "Results are given in words; binding and its absence hold for the method and conditions named. Binding seen in cells or lysates may run through a third protein. Some entries that bind do so weakly or less than the wild type.", "data": [{"substance": "Androgen receptor (from UniProt P10275 1-920)", "values": [{"measurement": "binding", "result": "binds"}]}]}
